Reference: US8715666B2 (priority 2005, dated 2014)
Entries after “also recorded” stand apart in the source; their conditions may differ.

Tested on: mice nociceptive response to formalin
Conditions: mouse, in vivo

For `CN1CC[C@]23c4c5ccc(O)c4O[C@H]2[C@@H](O)C=C[C@H]3[C@H]1C5` [morphine], the “analgesic effect on licking response” value was “completely ineffective; also recorded: significant analgesic effect; also recorded: block the response to formalin consistently; also recorded: per se ineffective; also recorded: totally ineffective; also recorded: strongly reduce the pain response; also recorded: per se effective” and the “reduction of licking time” value was roughly 50%.
